Data on one molecule can be found in US20210154267A1.

No constants are given. Whether binding was seen depends on the method and setting. In cells and extracts the contact can be indirect. Some binding calls cover weakened binding; strength is not graded here. Sequences can lack the tags named with a protein.

For assay [1], the target named is T1, NEFL fused to a Myc-tag at the C-terminus (NEFL-Myc) (UniProt P07196).
T1 sequence (looked up): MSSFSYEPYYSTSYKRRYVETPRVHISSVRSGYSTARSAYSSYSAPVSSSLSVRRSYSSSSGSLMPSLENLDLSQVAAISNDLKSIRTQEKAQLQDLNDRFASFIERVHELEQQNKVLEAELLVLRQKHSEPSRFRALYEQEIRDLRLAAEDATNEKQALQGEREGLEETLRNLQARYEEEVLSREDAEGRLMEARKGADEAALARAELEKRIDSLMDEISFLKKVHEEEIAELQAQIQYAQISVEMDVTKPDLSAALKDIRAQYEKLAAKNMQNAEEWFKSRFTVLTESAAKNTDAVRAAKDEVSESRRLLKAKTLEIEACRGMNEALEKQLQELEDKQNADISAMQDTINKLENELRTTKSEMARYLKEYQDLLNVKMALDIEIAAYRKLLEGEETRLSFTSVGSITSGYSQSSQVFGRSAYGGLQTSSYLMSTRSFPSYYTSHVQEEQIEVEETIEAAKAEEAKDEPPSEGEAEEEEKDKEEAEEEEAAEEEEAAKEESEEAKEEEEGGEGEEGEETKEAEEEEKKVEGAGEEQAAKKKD
The experiment in a line: co-immunoprecipitation with antibody against GFP or Myc, IgG as negative control (FIG. 3 legend).

The target of assay [2] is T1, NEFL fused to a Myc-tag at the C-terminus (NEFL-Myc). The experiment in a line: co-immunoprecipitation from transfected Neuro-2a lysates (anti-GFP pull-down, western blot; reverse NEFL-Myc pull-down also confirmed the interaction). For orientation: In western blotting, separated proteins are transferred to a membrane and probed.

B1: GFP-tagged wild type NEFH protein (GFP-WT-NEFH) (protein, human, UniProt P12036 1-1020, looked up, not shown: large carriers)
chain: MMSFGGADALLGAPFAPLHGGGSLHYALARKGGAGGTRSAAGSSSGFHSWTRTSVSSVSASPSRFRGAGAASSTDSLDTLSNGPEGCMVAVATSRSEKEQLQALNDRFAGYIDKVRQLEAHNRSLEGEAAALRQQQAGRSAMGELYEREVREMRGAVLRLGAARGQLRLEQEHLLEDIAHVRQRLDDEARQREEAEAAARALARFAQEAEAARVDLQKKAQALQEECGYLRRHHQEEVGELLGQIQGSGAAQAQMQAETRDALKCDVTSALREIRAQLEGHAVQSTLQSEEWFRVRLDRLSEAAKVNTDAMRSAQEEITEYRRQLQARTTELEALKSTKDSLERQRSELEDRHQADIASYQEAIQQLDAELRNTKWEMAAQLREYQDLLNVKMALDIEIAAYRKLLEGEECRIGFGPIPFSLPEGLPKIPSVSTHIKVKSEEKIKVVEKSEKETVIVEEQTEETQVTEEVTEEEEKEAKEEEGKEEEGGEEEEAEGGEEETKSPPAEEAASPEKEAKSPVKEEAKSPAEAKSPEKEEAKSPAEVKSPEKAKSPAKEEAKSPPEAKSPEKEEAKSPAEVKSPEKAKSPAKEEAKSPAEAKSPEKAKSPVKEEAKSPAEAKSPVKEEAKSPAEVKSPEKAKSPTKEEAKSPEKAKSPEKEEAKSPEKAKSPVKAEAKSPEKAKSPVKAEAKSPEKAKSPVKEEAKSPEKAKSPVKEEAKSPEKAKSPVKEEAKTPEKAKSPVKEEAKSPEKAKSPEKAKTLDVKSPEAKTPAKEEARSPADKFPEKAKSPVKEEVKSPEKAKSPLKEDAKAPEKEIPKKEEVKSPVKEEEKPQEVKVKEPPKKAEEEKAPATPKTEEKKDSKKEEAPKKEAPKPKVEEKKEPAVEKPKESKVEAKKEEAEDKKKVPTPEKEAPAKVEVKEDAKPKEKTEVAKKEPDDAKAKEPSKPAEKKEAAPEKKDTKEEKAKKPEEKPKTEAKAKEDDKTLSKEPSKPKAEKAEKSSSTDQKDSKPPEKATEDKAAKGK
Take B1: the binding entry in assay [1] and in assay [2] was “binds” throughout.
